Measured values published in publication PMC4806981.
These are yes or no findings as the source states them, for the method shown. In cells and extracts the contact can be indirect. Some entries that bind do so weakly or less than the wild type. Sequences can lack the tags named with a protein.

B1: FLAG-tagged fibrillarin (FBL), human (enzyme, UniProt P22087 1-321)
chain: MKPGFSPRGGGFGGRGGFGDRGGRGGRGGFGGGRGRGGGFRGRGRGGGGGGGGGGGGGRGGGGFHSGGNRGRGRGGKRGNQSGKNVMVEPHRHEGVFICRGKEDALVTKNLVPGESVYGEKRVSISEGDDKIEYRAWNPFRSKLAAAILGGVDQIHIKPGAKVLYLGAASGTTVSHVSDIVGPDGLVYAVEFSHRSGRDLINLAKKRTNIIPVIEDARHPHKYRMLIAMVDVIFADVAQPDQTRIVALNAHTFLRNGGHFVISIKANCIDSTASAEAVFASEVKKMQQENMKPQEQLTLEPYERDHAVVVGVYRPPPKVKN

What was measured:
[1] = target: T1, FLAG-tagged fibrillarin (FBL), human (human) (UniProt P22087); experiment: co-IP
T1 sequence: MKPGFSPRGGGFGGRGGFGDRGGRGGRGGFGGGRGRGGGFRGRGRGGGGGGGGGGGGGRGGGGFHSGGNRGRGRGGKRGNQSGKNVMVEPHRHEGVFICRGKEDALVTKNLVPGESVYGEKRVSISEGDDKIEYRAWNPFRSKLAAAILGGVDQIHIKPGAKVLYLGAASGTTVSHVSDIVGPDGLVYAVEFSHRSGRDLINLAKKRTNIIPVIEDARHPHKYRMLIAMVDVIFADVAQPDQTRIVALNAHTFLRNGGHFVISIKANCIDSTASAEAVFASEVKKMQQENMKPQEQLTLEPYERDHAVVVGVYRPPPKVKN

[2] = target: myc-tagged Hendra virus matrix protein (HeV-M) (Hendra virus) (UniProt O89341); experiment: co-IP

Row | Molecule | binding [1] | binding [2]
1 | myc-tagged Hendra virus matrix protein (HeV-M) (from UniProt O89341 1-352) | binds | –
2 | B1 | – | binds
